## Library screening results

Results are given as percent effect. How 0% and 100% were set is not recorded. Most values in the screen are low, and negative values occur. The compounds are a random part of those screened. Two or more numbers in one place are separate tests of the same structure; such repeats can differ widely.

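Viability assay of Plasmodium falciparum sporozoites; the read-out is not stated. The concentration is filed as 10 mM, unlikely as a test dose, so the dose is not known. Higher reads as lower viability (inferred: compounds with an IC50 in retests scored well above the rest). Strong results were mostly tested again. About 34,000 compounds were tested under these conditions; 0.84% (about 280) showed 50% or more at least once.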

c1ccc(N2CCN(Cc3cnc(C4CCCCO4)nc3)CC2)cc1 (stereo unspecified) gave 5.058%.
CCN1CCC(CNc2nccc(C)n2)(N(C)C)CC1 gave 1.404%.
Cn1ccc(C(=O)NCc2ccccc2CN2CCCCC2)cc1=O gave 3.58%.
O=C(NS(=O)(=O)Cc1cc(-c2ccccc2)no1)C1CCOCC1 gave 3.775% & -2.426%.
Cc1cnn(CC2CCCCN2C(=O)Cc2cccc(F)c2)c1 (stereo unspecified) gave -36.16% & -28.39% & -2.826%.
Cc1ccccc1N1CCN(CCS(=O)(=O)c2ccc(Br)cc2)CC1 gave -5.789%.
CN(C)C(C(=O)N1CC(Oc2ccccc2F)C1)c1ccc(F)cc1 (stereo unspecified) gave -4.272%.
O=C(O)C(F)(F)F.O=C(O)C(F)(F)F.O=C1CC(c2ccncc2)C2(CCN(CC3CC3)CC2)N1 (stereo unspecified) gave 5.902%.
COCc1cncc2c1CCN(Cc1cccnc1)C2 gave -1.625%.
CNC(=O)C1(CCCc2cnccn2)CCN1Cc1ccc(C)cc1 (stereo unspecified) gave 14.6%.
CC1CCN(CCNCc2cc(-c3ccccc3)cn3nnnc23)CC1 gave -3.402%.
Cc1ccccc1C1CCCN1C(=O)CN1CC2(CCNCC2)OC1=O (stereo unspecified) gave 0.1176%.
[H][C@]12CCN(C(=O)c3cc(C)on3)CC[C@@]1([H])S(=O)(=O)N(C)C2 gave -13.75%.
CC(=O)NCCNC(=O)c1cnc(-c2ccccc2)nc1 gave 6.459%.
O=S(=O)(Cc1ccccc1)NCc1ccco1 gave -5.599%.
Cc1nc(CN2CCCC(c3nccs3)C2)cs1 (stereo unspecified) gave 6.345%.
[H][C@]12CCCCN1CCC[C@H]2COc1ccc2c(c1)OCCO2 gave 5.322%.
Cc1nnc(NC(=O)NCc2ccoc2)s1 gave 6.989%.
CCN(CC)CCNC(=O)c1cc(C(C)C)nc(N2CCCC2)n1 gave 11.4%.
CCn1cc(CN2CCCN(C(=O)c3ccco3)CC2)cn1 gave -1.054%.
Cc1ncc2c(n1)C1(CCN(C(=O)C3CC3)CC1)OCC2.Cl gave 5.89%.
Cn1ccnc1CN1CCOCC(Cc2ccccn2)C1 (stereo unspecified) gave -11.07%.
CCOc1ccccc1CN(CC)Cc1ccc(S(C)(=O)=O)cc1 gave 7.338%.
CC(=O)N(Cc1noc(C2CC2)n1)C1CCN(CC(=O)NC2CC2)C1 (stereo unspecified) gave -5.628%.
COc1ccccc1C(O)CNC(=O)NCc1cc[nH]n1 (stereo unspecified) gave -0.6985%.
OCCn1nccc1C1CCN(CCCOc2ccc(F)cc2)CC1 gave -9.372%.
[H][C@@]12CS(=O)(=O)C[C@]1([H])N(C(=O)NCC)CCN2Cc1nc2ccccc2[nH]1 gave -11.3%.
Clc1cccc(-c2nc(CNC3CCc4ncnn4C3)co2)c1 (stereo unspecified) gave 10.08%.
COCc1nc(C(=O)N2CCCC2c2cccs2)cs1 (stereo unspecified) gave 5.787% & -17.78% & -33.17%.
Cc1cnc(C(=O)N2CCCN(c3nc(C)cs3)CC2)cn1 gave 3.089%.
Cc1nc(CN2CCCC(N(C)CCc3ccncc3)C2)no1 (stereo unspecified) gave 0.7519%.
COc1cccc2cc(CNC(=O)N3CCCC(O)C3)oc12 (stereo unspecified) gave -4.194%.
c1ccc(N2CCN(Cc3cnc(C4CCCCO4)nc3)CC2)nc1 (stereo unspecified) gave -14.36%.
COCCC(=O)N1CCCC([C@@H]2C[C@H](C(F)F)n3ncnc3N2)C1 (stereo partly specified) gave -4.791%.

Some entries from above, unchanged:

structure,Percent Effect
[H][C@]12CCCCN1CCC[C@H]2COc1ccc2c(c1)OCCO2,5.322
CC(=O)NCCNC(=O)c1cnc(-c2ccccc2)nc1,6.459
COCc1nc(C(=O)N2CCCC2c2cccs2)cs1 (stereo unspecified),5.787 & -17.78 & -33.17
[H][C@@]12CS(=O)(=O)C[C@]1([H])N(C(=O)NCC)CCN2Cc1nc2ccccc2[nH]1,-11.3

The values are deposited in ChEMBL (CHEMBL3988442, “University of Dundee, Small-Polar-MMV Screening Library” (2021)).